According to PMC10985082:
Results are given in words; binding and its absence hold for the method and conditions named. Binding seen in cells or lysates may run through a third protein. Some binding calls cover weakened binding; strength is not graded here.

Amino acid sequences for entries named in this document (tags omitted).
UniProt Q9WUD1: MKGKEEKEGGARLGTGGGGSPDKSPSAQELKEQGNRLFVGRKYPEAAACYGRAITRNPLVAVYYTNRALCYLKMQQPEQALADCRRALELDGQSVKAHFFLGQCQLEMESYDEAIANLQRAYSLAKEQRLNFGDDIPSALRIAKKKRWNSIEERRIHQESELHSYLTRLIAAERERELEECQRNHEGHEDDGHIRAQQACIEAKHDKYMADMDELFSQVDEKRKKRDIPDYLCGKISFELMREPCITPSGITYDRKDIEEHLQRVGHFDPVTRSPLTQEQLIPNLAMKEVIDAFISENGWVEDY

Target: STUB1 (STIP1 homology and U-box-containing protein 1), endogenous in HL-1 cells (mouse (endogenous in HL-1)) (UniProt Q9WUD1)
Assay: co-IP; endogenous proteins; AC16 and HL-1 lysates in IP lysis buffer, pre-cleaned with protein A/G beads at 4 °C for 4 h, immunoprecipitated with protein A/G beads conjugated with anti-STUB1 or anti-IgG at 4 °C overnight; Western blotting

binding: binds
B1: LATS2 (large tumor suppressor kinase 2), endogenous in HL-1 cells (protein, UniProt Q7TSJ6 1-1042)
chain: MRPKTFPATTYSGNSRQRLQEIREGLKQPSKASTQGLLVGPNSDTSLDAKVLGSKDASRQQQMRATPKFGPYQKALREIRYSLLPFANESGTSAAAEVNRQMLQELVNAGCDQEMAGRALKQTGSRSIEAALEYISKMGYLDPRNEQIVRVIKQTSPGKGLAPTPVTRRPSFEGTGEALPSYHQLGGANYEGPAALEEMPRQYLDFLFPGAGAGTHGAQAHQHPPKGYSTAVEPSAHFPGTHYGRGHLLSEQPGYGVQRSSSFQNKTPPDAYSSMAKAQGGPPASLTFPAHAGLYTASHHKPAATPPGAHPLHVLGTRGPTFTGESSAQAVLAPSRNSLNADLYELGSTVPWSAAPLARRDSLQKQGLEASRPHVAFRAGPSRTNSFNNPQPEPSLPAPNTVTAVTAAHILHPVKSVRVLRPEPQTAVGPSHPAWVAAPTAPATESLETKEGSAGPHPLDVDYGGSERRCPPPPYPKHLLLPSKSEQYSVDLDSLCTSVQQSLRGGTEQDRSDKSHKGAKGDKAGRDKKQIQTSPVPVRKNSRDEEKRESRIKSYSPYAFKFFMEQHVENVIKTYQQKVSRRLQLEQEMAKAGLCEAEQEQMRKILYQKESNYNRLKRAKMDKSMFVKIKTLGIGAFGEVCLACKLDTHALYAMKTLRKKDVLNRNQVAHVKAERDILAEADNEWVVKLYYSFQDKDSLYFVMDYIPGGDMMSLLIRMEVFPEHLARFYIAELTLAIESVHKMGFIHRDIKPDNILIDLDGHIKLTDFGLCTGFRWTHNSKYYQKGNHMRQDSMEPGDLWDDVSNCRCGDRLKTLEQRAQKQHQRCLAHSLVGTPNYIAPEVLLRKGYTQLCDWWSVGVILFEMLVGQPPFLAPTPTETQLKVINWESTLHIPTQVRLSAEARDLITKLCCAADCRLGRDGADDLKAHPFFNTIDFSRDIRKQPAPYVPTISHPMDTSNFDPVDEESPWHEASGESAKAWDTLASPSSKHPEHAFYEFTFRRFFDDNGYPFRCPKPSEPAESADPGDADLEGAAEGCQPVYV
